Among the data in the supplement of paper PMC10849652 are log2 fold change values, retold here.

Amino acid sequences for entries named in this document (tags omitted). A change or cut given only in a name is not applied to a line headed by its entry.
UniProt Q9ULZ3, whole entry, looked up: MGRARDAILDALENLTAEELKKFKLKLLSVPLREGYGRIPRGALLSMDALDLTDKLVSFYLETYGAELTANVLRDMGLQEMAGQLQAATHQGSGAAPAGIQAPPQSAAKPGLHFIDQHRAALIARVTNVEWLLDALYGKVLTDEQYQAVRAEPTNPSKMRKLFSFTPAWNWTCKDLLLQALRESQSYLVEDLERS
UniProt Q13308: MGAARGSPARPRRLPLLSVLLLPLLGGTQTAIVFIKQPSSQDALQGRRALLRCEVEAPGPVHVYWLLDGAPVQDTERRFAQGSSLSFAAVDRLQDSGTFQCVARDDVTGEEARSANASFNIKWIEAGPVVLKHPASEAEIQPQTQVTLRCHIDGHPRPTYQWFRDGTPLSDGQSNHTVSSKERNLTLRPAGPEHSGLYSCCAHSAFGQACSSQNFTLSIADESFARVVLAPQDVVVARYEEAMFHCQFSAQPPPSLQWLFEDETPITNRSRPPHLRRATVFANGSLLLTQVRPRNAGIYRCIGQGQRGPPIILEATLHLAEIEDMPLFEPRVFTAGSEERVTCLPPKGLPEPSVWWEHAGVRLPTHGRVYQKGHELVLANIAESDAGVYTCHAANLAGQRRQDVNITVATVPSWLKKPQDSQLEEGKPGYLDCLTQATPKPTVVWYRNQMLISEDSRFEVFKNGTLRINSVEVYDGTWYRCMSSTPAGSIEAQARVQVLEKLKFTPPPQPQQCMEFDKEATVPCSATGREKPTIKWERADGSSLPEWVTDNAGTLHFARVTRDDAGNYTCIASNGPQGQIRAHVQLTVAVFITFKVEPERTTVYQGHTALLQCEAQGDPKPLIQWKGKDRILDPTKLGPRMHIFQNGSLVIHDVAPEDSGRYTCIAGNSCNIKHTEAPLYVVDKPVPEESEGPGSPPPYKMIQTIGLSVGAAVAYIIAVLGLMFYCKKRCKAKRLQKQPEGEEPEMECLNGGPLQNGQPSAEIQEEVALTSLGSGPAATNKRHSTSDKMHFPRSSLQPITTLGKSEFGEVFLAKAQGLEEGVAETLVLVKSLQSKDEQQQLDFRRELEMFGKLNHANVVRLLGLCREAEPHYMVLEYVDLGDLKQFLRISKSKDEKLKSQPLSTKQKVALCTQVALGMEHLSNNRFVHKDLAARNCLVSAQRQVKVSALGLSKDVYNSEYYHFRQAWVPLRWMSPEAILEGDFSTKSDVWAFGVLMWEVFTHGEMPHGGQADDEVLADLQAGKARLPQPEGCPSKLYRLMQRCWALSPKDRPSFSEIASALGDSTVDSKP
UniProt P25786: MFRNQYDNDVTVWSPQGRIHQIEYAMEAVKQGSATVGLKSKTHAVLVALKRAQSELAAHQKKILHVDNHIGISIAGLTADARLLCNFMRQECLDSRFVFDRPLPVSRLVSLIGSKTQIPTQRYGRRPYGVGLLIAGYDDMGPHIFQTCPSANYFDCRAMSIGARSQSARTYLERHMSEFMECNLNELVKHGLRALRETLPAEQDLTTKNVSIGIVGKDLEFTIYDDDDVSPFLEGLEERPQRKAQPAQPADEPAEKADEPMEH
UniProt P28066: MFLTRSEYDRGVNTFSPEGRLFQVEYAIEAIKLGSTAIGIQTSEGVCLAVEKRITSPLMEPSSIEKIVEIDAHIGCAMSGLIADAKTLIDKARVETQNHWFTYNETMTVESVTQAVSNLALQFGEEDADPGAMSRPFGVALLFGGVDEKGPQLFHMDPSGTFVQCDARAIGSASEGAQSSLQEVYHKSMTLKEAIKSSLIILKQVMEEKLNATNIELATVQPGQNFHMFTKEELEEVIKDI
UniProt P49023, whole entry, looked up: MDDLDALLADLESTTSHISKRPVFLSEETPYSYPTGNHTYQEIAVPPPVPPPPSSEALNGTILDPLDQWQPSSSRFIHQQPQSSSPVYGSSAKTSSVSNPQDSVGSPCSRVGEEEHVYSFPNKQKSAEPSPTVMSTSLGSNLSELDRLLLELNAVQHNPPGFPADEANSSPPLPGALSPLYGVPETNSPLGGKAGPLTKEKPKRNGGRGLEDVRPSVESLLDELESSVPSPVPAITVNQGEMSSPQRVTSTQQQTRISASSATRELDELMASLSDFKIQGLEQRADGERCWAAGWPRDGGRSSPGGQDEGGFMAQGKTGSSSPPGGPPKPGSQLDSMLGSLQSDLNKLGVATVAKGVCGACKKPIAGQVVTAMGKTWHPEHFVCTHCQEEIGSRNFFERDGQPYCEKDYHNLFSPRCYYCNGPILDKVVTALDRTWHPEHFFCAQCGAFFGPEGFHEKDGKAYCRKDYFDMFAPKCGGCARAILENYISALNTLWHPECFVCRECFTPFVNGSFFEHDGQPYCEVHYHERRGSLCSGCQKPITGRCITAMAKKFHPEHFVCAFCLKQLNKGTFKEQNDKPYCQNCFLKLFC
UniProt P78330: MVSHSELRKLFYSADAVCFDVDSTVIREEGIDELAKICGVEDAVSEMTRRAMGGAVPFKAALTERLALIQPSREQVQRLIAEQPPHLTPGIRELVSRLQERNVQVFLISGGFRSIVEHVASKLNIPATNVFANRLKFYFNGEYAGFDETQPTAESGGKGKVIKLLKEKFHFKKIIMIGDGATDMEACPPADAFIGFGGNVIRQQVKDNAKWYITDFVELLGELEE
UniProt P20962: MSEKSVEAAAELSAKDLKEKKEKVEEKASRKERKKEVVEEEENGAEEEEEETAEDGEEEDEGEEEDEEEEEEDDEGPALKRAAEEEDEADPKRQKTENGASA
UniProt Q15269: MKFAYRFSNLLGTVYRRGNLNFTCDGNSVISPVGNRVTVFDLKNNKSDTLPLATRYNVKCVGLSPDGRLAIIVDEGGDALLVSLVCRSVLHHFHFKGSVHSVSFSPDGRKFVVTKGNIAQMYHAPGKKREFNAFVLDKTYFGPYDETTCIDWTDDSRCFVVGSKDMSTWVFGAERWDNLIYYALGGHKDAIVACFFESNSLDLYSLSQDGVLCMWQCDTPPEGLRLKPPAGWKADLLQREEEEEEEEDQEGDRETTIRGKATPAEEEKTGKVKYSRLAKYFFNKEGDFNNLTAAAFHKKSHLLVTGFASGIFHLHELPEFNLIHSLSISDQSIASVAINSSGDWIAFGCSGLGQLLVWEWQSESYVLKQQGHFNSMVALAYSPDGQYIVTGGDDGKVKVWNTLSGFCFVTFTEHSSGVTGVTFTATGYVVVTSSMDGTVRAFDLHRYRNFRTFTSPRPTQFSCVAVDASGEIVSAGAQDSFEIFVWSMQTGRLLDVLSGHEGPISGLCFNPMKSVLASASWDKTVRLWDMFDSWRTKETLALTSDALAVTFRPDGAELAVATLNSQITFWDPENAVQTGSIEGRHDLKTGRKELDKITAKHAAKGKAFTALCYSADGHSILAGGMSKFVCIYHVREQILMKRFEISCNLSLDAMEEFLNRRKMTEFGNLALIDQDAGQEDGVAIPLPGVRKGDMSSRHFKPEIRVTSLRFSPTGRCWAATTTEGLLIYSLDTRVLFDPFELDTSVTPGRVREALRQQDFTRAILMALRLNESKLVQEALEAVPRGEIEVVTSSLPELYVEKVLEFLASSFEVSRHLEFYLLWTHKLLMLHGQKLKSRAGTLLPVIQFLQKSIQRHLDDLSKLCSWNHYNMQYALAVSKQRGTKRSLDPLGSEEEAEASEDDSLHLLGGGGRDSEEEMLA
UniProt P09417: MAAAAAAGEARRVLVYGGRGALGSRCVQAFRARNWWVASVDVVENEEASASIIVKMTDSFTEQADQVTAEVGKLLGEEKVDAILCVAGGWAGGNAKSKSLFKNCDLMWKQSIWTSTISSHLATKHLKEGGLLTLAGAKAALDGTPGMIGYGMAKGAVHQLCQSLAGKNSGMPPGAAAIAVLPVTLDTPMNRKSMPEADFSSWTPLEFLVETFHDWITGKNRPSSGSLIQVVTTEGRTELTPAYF
UniProt Q06323: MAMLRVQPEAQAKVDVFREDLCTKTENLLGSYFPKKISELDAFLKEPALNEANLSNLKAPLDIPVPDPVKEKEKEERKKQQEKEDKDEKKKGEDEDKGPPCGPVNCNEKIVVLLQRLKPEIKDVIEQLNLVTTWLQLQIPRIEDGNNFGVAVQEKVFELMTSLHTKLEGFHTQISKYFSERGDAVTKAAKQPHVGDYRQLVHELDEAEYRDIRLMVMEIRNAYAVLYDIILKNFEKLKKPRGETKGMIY
UniProt Q9NRG1: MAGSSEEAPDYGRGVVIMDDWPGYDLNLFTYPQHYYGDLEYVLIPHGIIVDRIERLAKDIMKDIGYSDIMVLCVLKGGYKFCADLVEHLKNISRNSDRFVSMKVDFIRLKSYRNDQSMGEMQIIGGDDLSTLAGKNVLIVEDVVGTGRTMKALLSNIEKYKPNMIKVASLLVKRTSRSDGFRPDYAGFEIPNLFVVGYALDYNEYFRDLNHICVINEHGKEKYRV
UniProt P20618: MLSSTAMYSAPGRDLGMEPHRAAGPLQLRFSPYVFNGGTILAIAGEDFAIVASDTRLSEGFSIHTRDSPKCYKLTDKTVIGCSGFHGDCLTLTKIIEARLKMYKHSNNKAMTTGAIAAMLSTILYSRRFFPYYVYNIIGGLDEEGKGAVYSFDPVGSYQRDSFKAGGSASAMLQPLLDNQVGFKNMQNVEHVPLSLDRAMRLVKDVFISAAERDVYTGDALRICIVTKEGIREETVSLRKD
UniProt P18433: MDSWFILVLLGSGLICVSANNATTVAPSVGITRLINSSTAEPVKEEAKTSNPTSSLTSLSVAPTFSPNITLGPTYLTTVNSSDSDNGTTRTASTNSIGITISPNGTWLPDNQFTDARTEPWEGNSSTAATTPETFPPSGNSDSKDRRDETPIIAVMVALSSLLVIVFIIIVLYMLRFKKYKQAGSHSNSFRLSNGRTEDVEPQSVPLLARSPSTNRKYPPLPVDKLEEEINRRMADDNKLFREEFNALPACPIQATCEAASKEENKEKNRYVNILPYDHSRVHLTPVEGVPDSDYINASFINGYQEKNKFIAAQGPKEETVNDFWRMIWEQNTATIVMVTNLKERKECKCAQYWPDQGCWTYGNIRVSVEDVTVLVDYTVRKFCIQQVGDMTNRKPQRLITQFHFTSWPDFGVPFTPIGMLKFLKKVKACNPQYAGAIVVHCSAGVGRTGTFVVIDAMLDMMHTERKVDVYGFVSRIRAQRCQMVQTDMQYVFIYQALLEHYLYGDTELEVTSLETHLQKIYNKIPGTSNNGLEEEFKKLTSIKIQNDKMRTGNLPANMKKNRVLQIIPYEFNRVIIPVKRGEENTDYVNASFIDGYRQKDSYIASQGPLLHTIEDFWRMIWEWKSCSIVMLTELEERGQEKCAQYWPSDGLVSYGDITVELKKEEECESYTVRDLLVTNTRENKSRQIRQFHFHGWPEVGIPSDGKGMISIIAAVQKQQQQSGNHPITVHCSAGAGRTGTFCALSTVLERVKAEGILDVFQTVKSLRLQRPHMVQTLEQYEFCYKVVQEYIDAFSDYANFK
UniProt P55036: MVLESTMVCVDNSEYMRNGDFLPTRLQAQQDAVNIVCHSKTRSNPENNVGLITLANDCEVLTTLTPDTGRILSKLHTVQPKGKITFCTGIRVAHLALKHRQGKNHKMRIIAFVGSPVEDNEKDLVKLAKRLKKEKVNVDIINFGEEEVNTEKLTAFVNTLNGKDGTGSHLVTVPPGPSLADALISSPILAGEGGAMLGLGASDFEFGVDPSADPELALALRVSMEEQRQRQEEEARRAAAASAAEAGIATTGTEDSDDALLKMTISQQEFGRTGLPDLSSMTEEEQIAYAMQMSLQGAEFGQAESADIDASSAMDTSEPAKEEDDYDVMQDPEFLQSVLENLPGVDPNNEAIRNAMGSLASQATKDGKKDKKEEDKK
UniProt O00487, whole entry, looked up: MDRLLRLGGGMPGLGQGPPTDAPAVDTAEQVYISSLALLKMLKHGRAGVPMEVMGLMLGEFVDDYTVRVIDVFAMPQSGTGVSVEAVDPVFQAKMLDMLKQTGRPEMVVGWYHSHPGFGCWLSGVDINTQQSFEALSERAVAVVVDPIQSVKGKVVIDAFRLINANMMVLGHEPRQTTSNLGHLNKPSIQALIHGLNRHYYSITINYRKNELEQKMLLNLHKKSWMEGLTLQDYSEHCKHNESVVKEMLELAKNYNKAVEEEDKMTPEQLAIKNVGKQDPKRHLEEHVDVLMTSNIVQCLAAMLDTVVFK
UniProt Q9H974: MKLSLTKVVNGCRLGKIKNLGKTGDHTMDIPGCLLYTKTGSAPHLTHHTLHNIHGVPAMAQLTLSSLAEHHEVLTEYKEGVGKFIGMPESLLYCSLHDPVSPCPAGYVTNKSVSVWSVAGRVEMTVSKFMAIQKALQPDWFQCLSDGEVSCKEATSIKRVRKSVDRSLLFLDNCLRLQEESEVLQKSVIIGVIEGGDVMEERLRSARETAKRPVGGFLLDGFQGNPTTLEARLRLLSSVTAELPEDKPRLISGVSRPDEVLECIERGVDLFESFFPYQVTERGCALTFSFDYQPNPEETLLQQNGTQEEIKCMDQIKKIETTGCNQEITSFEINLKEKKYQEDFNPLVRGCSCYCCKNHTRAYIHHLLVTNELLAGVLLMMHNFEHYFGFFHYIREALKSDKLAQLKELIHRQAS
UniProt Q5JS54: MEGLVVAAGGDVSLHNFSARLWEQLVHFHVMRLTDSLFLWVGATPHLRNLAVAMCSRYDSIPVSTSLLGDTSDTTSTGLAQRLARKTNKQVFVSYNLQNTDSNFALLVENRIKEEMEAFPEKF

The other results are listed elsewhere or left out.

Compound in the first experiment: C=CC(=O)N1CCC[C@@H](n2nc(-c3ccc(Oc4ccccc4)cc3)c3c(N)ncnc32)C1 [ibrutinib]
Description: log2 fold change, soluble protein after heating vs DMSO (PISA); higher = thermal stabilisation; K562 cells, 10 uM, 30 min; active = over 0.2 and 3.5 SD of the protein, either way, in both replicates (recomputed). The procedure, abridged:
(§1)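 Soluble protein was defined as the supernatant after 21,000xg for 90 min. It came from K562 cells at 2×10^6 cells/mL given 10 μM compound for 30 min, heated in aliquots for 3 min across 48°C-58°C, pooled, and extracted in PBS with 0.5% NP-40 at 4°C, and was quantified by TMTpro 16plex LC-MS/MS with equalised channel sums. Thermal stability against control samples, from duplicates, is reported as log2 fold change.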
With PYCARD (UniProt Q9ULZ3), the log2 fold change was inactive: 0.022. Same read-out and setting: the result for PSMA7 (UniProt O14818) reads inactive: -0.021; that for PTDSS2 (UniProt Q9BVG9), inactive: -0.02.

For QSOX2 (UniProt Q6ZRP7), the log2 fold change is inactive: -0.006. Still for that read-out and setting: then PTK7 isoform 6 (UniProt Q13308), with inactive: 0.011; and PYM1 (UniProt Q9BRP8), with inactive: 0.034. On the same count and under the same terms, then PSMA1 isoform 2 (UniProt P25786), with inactive: -0.003; and PSMA5 (UniProt P28066), with inactive: 0.01. In the case of PTCD3 (UniProt Q96EY7), the log2 fold change was inactive: 0.109.

Consider PXN (UniProt P49023), for which the log2 fold change was inactive: 0.057. Still for that read-out and setting: the result for PSAP isoform 3 (UniProt P07602) reads inactive: -0.009.

Compound in the next experiment: CC(=O)c1cnc2ccc(-c3cc(Cl)c(O)c(Cl)c3)nc2c1N[C@H]1CC[C@H](CN(C)C)CC1
The experiment is described as above. The method in brief: as §1
PXMP2 (UniProt Q9NR77): the log2 fold change was inactive: -0.016. Same read-out and setting: then PSPH (UniProt P78330), with inactive: 0.017. As for QTRT1 (UniProt Q9BXR0), the log2 fold change is inactive: -0.036. As to PUS7 isoform 2 (UniProt Q96PZ0), the log2 fold change was inactive: -0.067. On to PZP (UniProt P20742), for which the log2 fold change was inactive: 0.118. On the same count and under the same terms, then QPCTL (UniProt Q9NXS2), with inactive: -0.013; and PTMS (UniProt P20962), with inactive: 0.037.

For PWP2 (UniProt Q15269), the log2 fold change was inactive: 0.031. Still for that read-out and setting: then PSMA8 (UniProt Q8TAA3), with inactive: 0.037. Still for that read-out and setting: the result for QDPR (UniProt P09417) reads inactive: 0.047; that for PSME1 (UniProt Q06323), inactive: -0.013; that for PSME2 (UniProt Q9UL46), inactive: 0.005. Still for that read-out and setting: then PRTFDC1 (UniProt Q9NRG1), with inactive: 0.042; and PSMB1 (UniProt P20618), with inactive: 0.041; and PTPRA (UniProt P18433), with inactive: -0.102.

In the case of PSMD4 (UniProt P55036), the log2 fold change is inactive: 0.064. Same read-out and setting: then PUS7L (UniProt Q9H0K6), with inactive: -0.046; and PSMD14 (UniProt O00487), with inactive: 0.029; and PUM2 (UniProt Q8TB72), with inactive: -0.055. On to PTPRC (UniProt P08575), for which the log2 fold change was inactive: -0.057. On the same count and under the same terms, then QTRT2 isoform 4 (UniProt Q9H974), with inactive: -0.001; and PUS10 (UniProt Q3MIT2), with inactive: -0.253. Still for that read-out and setting: then PSMG4 isoform 2 (UniProt Q5JS54), with inactive: 0.054. Same read-out and setting: the result for PYCARD (UniProt Q9ULZ3) reads inactive: -0.021. With PSMA7 (UniProt O14818), the log2 fold change was inactive: 0.071. Still for that read-out and setting: the result for PTDSS2 (UniProt Q9BVG9) reads inactive: -0.016; that for QSOX2 (UniProt Q6ZRP7), inactive: -0.048. On the same count and under the same terms, then PTK7 isoform 6 (UniProt Q13308), with inactive: -0.128; and PYM1 (UniProt Q9BRP8), with inactive: 0.065; and PSMA1 isoform 2 (UniProt P25786), with inactive: 0.07.

In the case of PSMA5 (UniProt P28066), the log2 fold change is inactive: 0.031. The same measure, in the same setting: then PTCD3 (UniProt Q96EY7), with inactive: 0.007. Still for that read-out and setting: then PXN (UniProt P49023), with inactive: 0.017. Take PSAP isoform 3 (UniProt P07602): the log2 fold change is inactive: 0.022.
